Data from paper PMC5641942 (Physiological Reports, 2017).

Tested on: Caco-2 cell monolayers
Assay: Barrier properties of Caco-2 cell monolayers: mannitol permeability and TEER
Details: for TEER After: after 120 min experiment; for TEER Before: before experiment
[1] = A–B transport pH 6.0/7.4, 20 mg/mL test substance
[2] = A–B transport pH 7.4/7.4, 20 mg/mL test substance

SMILES | TEER After [1] | TEER Before [1] | TEER After [2] | TEER Before [2]
CNCC(=O)O [Sar, sarcosine] | 401 ± 69 Ω·cm^2 | 514 ± 54 Ω·cm^2 | 171 ± 53 Ω·cm^2 | 467 ± 48 Ω·cm^2
NC1(C(=O)O)CC2CCC1C2 (stereo not drawn) [BCH, 2‐Amino‐2‐norbornanecarboxylic acid] | 349 ± 57 Ω·cm^2 | 491 ± 54 Ω·cm^2 | 299 ± 28 Ω·cm^2 | 512 ± 40 Ω·cm^2
O=C(O)[C@@H]1CCCN1 [Pro, L‐proline] | 354 ± 56 Ω·cm^2 | 509 ± 64 Ω·cm^2 | 135 ± 23 Ω·cm^2 | 486 ± 62 Ω·cm^2
